Reference: PMC10115800, “Two assembly modes for SIN3 histone deacetylase complexes” (Cell Discovery, 2023)
Results are given in words; binding and its absence hold for the method and conditions named. Binding seen in cells or lysates may run through a third protein. These calls come from enrichment with a bait or labelling near it, and not all partners need be listed. For some assays here: No binding means not detected with the bait. Sequences can lack the tags named with a protein.

How the values were obtained:
[1] = target: T1, Pst2 with C-terminal 3× Flag-tag (S. pombe, UniProt O13919 1-1075); test: affinity purification with mass spectrometry; Pst2-3×Flag as bait from S. pombe lysate (350 mM NaCl) on ANTI-FLAG M2 resin, FLAG peptide elution, glycerol gradient; SDS-PAGE bands analysed by LC-MS/MS
T1 construct: Pst2, Sin3 homolog of S. pombe, organising subunit of the SIN3S complex; all five domains (PAH1/2/3, HID, HCR) are resolved; also called Pst2-Flag; Sin3 isoform Pst2; source: endogenous locus tagged, S. pombe; purified (ANTI-FLAG M2 resin, glycerol gradient); not shown: 3× Flag, C-terminal, kept
T1 sequence (looked up): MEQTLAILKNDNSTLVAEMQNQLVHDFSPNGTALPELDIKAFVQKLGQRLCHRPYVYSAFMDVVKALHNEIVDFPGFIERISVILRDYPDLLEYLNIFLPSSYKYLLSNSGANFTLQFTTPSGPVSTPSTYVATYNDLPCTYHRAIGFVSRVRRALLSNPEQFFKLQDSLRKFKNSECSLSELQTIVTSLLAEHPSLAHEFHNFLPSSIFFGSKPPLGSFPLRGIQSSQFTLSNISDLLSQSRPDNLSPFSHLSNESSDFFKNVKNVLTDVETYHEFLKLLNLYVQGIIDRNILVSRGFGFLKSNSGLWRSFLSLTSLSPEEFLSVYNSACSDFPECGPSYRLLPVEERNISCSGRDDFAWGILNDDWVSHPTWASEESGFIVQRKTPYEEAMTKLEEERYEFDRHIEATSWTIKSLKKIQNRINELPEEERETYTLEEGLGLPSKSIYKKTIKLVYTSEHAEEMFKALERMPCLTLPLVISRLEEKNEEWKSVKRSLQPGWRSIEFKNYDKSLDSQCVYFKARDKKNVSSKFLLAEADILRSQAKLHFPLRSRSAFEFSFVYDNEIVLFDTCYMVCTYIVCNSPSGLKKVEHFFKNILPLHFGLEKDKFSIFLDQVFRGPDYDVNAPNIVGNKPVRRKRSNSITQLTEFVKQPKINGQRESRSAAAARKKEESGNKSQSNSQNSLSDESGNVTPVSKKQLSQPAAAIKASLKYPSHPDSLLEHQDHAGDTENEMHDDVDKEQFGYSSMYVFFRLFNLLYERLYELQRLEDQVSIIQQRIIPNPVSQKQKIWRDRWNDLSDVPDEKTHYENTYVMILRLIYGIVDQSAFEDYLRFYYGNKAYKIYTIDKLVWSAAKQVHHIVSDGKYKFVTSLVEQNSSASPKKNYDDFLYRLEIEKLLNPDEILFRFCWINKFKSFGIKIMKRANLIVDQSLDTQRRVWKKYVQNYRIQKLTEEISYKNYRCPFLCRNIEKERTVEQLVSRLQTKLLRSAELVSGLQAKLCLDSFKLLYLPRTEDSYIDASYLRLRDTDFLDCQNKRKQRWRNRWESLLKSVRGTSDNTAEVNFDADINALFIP

[2] = target: T2, Pst3 with C-terminal 3× Flag-tag (S. pombe, UniProt O74755 1-1154); test: affinity purification with mass spectrometry; Pst3-3×Flag as bait from S. pombe lysate (350 mM NaCl) on ANTI-FLAG M2 resin, FLAG peptide elution, glycerol gradient; SDS-PAGE bands analysed by LC-MS/MS
T2 construct: Pst3, Sin3 homolog of S. pombe, subunit of the SIN3L complex; PAH3, HID and HCR are resolved in the model; Endogenous protein; also called Pst3-Flag; Sin3 isoform Pst3; source: endogenous locus tagged, S. pombe; purified (ANTI-FLAG M2 resin, glycerol gradient); not shown: 3× Flag, C-terminal, kept
T2 sequence (looked up): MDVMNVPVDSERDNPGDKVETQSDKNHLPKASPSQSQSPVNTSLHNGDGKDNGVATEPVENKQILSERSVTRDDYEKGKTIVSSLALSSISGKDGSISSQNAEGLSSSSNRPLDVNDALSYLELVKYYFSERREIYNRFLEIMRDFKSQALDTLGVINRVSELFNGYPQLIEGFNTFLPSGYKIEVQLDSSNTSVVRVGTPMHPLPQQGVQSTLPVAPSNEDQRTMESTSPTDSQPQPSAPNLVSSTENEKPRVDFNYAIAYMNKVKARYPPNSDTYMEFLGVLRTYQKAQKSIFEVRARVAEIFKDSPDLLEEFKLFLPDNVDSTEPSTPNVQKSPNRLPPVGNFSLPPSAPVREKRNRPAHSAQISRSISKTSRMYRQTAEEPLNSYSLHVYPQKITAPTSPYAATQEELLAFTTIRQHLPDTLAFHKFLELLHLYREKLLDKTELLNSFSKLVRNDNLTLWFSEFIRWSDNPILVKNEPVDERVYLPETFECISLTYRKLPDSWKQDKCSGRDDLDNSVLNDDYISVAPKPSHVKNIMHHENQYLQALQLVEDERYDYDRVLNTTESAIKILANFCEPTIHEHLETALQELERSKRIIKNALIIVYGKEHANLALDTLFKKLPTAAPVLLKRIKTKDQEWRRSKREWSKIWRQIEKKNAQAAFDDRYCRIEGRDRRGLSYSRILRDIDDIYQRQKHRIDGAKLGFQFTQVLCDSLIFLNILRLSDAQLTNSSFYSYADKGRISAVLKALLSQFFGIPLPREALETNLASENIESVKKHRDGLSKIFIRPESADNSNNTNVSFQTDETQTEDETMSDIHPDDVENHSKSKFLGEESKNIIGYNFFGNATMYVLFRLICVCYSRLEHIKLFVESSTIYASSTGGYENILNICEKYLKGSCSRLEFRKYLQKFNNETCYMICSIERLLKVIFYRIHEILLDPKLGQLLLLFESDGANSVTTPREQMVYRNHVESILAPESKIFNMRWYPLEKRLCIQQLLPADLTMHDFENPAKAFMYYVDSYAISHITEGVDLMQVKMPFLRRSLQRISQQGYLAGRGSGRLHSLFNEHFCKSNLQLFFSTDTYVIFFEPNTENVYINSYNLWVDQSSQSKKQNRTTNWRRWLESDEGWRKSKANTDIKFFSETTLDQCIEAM

binding [1]: no binding | binding [2]: binds
B1: Nrm1 (protein, UniProt O42913 1-342)
chain: MDRSMEPLTPSRLNTLGERPTNEVYEYGKGKNVQHLFPITPMQRPLGKENAAPGTISPIAVRSRNVRAVEIADENACEEPVLKIKSVSSTESEEEKESSTEIGEKQEKETHLEPKTPVQTNTNNNHLDDIQCCAKNLRLRLELAMYKVQVNQTFSPLQDLPIVAKTKLHNCPNSEPVTSIWNQRSLSSGKPPSLHLSGNRRLSMGSPTKSIYDQNGLTTPRPIGSDDLTHMYDPYTSPLRTPSRTLSRSSSHYLWVRHGKLTRSVSLLQHKTPRRIRPKSLSKSNSTPLKHLSAQKPNSNYYTGPPTPVSISNTPENIHPSSSEVRRIASHSKQFSDYGLIR
